# From patent US20240316029A1, “NEW TREATMENT OF IMMUNODEFICIENCY DISORDER” (ENLITISA (SHANGHAI) PHARMACEUTICAL CO., LTD., priority 2021, published 2024)
# At least one structure is not confirmed: it was looked up by name or label, or the drawing left a doubt.
# Experiments:
# irradiated rats [1] = assay: immune cell count in peripheral blood of irradiated rats (Example 1); type: in vivo, Sprague-Dawley rats; details: high dose (1 mg/g) gel into rectum after 17.5 Gy irradiation; compared with model group; FIG. 1
# irradiated rats [2] = assay: histopathological analysis of rectal tissue of irradiated rats (Example 1); type: in vivo, Sprague-Dawley rats; details: gel into rectum after 17.5 Gy irradiation, rats sacrificed after 7 days
# IL-1B = IL-1B in homogenized rectal tissue by ELISA kit (Example 1); type: in vivo, Sprague-Dawley rats; details: after 7 days, FIG. 3
# [3] = tested on: rats, in which radiation proctitis has been induced; assay: colon-rectum function by disease activity index (DAI), radiation proctitis rats (Example 2); type: in vivo, Wistar rats
# [4] = tested on: rats, in which radiation proctitis has been induced; assay: gross morphological evaluation of colon mucosa by colon mucosa damage index (CMDI) (Example 2); type: in vivo, Wistar rats
# [5] = intravenous administration 3 mg/kg compared with Monte M and Monte H
structure (smiles),measurement,setting,value
CC(C)(O)c1ccccc1CC[C@@H](SCC1(CC(=O)O)CC1)c1cccc(/C=C/c2ccc3ccc(Cl)cc3n2)c1 [montelukast],"total white blood cell, lymph cell and neutrophil counts in peripheral blood",irradiated rats [1],started to increase after 5 days
same,degree of damage in the rectum (histopathology),irradiated rats [2]; FIG. 2(a),reduced the degree of damage
same,epithelial regeneration in the rectum (histopathology),irradiated rats [2]; FIG. 2(b),promoted epithelial regeneration
same,IL-1B concentration in rectal tissues versus model group,IL-1B; low dose (0.33 mg/g) and high dose (1 mg/g) gel,"higher than that in the model group, in a dose dependent manner"
same,IL-1B concentration in rectal tissues versus control group,IL-1B; low dose and high dose groups versus non-irradiated normal control,decreased compared to the control group
same,"severity of disease (DAI), in words",[3]; intrarectal and intravenous administration,reduce the severity of disease in a dose-dependent manner
same,"severity of disease (DAI), intravenous versus intrarectal doses",[3]; [5],"slightly better than the Monte M intrarectal administration dose, but was less effective than Monte H dose"
same,"levels of lesions (CMDI), in words",[4]; increasing dose,reduced with increasing montelukast dose
same,"levels of lesions (CMDI), intravenous versus intrarectal doses",[4]; [5],"slightly better than the Monte M dose, but was less effective than the Monte H dose"
